In patent US20040175720A1 (NEW YORK UNIVERSITY, published 2004):
No constants are given. Whether binding was seen depends on the method and setting. For part of these data: Binding seen in cells or lysates may run through a third protein. Some entries that bind do so weakly or less than the wild type. For part of these data: Where a sequence is shown, tags or fusion partners need not be part of it.

Chains of the proteins cited; added tags and fusions are not shown. Lines headed by an entry give the natural chain unless they say otherwise; changes in a name come on top.
UniProt P0A7C2: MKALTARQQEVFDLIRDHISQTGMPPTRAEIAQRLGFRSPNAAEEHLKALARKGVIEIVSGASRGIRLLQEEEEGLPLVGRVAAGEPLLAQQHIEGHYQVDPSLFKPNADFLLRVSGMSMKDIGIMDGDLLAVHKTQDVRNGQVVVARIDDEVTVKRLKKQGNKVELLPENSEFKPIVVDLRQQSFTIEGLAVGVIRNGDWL
UniProt P04625: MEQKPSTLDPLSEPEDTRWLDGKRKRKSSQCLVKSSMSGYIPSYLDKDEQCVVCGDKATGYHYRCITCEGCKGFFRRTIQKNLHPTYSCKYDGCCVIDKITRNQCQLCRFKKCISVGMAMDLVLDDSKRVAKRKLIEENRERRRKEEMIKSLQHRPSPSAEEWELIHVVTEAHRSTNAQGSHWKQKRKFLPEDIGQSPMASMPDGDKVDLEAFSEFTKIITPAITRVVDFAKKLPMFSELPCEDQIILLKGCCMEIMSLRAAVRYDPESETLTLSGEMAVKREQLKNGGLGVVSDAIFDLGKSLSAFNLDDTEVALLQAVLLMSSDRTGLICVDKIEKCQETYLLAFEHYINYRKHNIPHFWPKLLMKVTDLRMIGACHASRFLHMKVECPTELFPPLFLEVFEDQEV
UniProt P19793: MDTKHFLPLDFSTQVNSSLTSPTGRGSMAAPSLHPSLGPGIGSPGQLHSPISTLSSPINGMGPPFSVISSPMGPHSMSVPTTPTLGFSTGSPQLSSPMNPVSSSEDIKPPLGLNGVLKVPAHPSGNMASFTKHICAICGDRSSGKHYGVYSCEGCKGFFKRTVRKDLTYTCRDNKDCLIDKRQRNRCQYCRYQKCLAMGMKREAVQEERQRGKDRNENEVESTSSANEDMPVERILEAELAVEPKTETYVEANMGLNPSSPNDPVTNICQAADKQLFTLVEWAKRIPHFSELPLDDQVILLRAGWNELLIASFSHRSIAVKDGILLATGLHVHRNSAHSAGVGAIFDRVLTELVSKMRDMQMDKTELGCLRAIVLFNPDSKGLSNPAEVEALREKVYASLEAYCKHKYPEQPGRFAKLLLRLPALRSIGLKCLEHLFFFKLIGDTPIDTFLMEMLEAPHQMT
UniProt P04150: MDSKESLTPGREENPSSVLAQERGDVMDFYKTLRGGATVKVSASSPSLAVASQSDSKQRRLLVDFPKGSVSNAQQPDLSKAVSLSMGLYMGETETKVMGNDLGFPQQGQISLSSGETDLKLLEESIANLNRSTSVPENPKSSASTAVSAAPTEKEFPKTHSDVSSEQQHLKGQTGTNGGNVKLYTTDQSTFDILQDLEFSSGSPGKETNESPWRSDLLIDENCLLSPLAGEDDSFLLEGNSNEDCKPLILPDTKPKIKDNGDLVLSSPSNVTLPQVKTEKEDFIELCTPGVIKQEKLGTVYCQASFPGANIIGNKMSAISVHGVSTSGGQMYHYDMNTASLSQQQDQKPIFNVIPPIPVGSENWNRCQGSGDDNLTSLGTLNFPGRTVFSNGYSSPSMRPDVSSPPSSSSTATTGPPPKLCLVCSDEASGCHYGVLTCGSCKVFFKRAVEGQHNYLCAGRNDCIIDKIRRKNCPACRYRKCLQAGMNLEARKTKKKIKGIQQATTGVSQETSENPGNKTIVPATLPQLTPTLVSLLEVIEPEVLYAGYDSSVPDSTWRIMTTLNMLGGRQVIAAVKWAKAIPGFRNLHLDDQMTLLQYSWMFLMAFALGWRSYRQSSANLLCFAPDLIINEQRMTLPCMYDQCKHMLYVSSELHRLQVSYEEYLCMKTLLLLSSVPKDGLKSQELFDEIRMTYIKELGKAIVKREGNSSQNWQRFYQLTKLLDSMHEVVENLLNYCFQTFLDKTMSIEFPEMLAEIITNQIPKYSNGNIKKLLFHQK
UniProt Q07869: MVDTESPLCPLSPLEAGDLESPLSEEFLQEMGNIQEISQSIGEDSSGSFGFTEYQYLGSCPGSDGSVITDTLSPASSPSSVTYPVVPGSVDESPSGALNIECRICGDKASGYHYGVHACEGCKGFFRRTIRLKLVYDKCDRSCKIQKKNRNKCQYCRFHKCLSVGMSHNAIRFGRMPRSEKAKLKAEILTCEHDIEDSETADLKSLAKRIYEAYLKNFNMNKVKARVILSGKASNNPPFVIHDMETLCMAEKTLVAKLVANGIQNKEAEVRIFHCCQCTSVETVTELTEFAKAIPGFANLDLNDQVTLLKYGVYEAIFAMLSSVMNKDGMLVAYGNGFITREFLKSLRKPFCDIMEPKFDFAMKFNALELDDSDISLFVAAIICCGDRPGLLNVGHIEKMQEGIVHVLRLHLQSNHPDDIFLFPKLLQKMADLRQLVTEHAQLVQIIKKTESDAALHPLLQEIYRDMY
UniProt P03372: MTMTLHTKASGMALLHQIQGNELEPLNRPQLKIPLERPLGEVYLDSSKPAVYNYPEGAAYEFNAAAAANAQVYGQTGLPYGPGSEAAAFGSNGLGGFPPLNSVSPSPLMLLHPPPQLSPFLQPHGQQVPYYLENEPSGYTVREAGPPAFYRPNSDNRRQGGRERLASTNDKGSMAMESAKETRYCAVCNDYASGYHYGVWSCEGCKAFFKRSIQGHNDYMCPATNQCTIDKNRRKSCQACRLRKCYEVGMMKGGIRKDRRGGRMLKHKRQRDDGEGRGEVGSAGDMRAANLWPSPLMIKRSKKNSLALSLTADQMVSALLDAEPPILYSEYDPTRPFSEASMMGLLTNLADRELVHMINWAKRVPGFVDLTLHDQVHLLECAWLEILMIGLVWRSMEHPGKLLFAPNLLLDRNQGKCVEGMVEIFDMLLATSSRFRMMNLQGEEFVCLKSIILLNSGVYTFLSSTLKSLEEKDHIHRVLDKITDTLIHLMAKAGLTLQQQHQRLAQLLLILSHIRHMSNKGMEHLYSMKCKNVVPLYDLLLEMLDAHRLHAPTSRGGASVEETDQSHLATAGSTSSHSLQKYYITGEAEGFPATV
UniProt P10276: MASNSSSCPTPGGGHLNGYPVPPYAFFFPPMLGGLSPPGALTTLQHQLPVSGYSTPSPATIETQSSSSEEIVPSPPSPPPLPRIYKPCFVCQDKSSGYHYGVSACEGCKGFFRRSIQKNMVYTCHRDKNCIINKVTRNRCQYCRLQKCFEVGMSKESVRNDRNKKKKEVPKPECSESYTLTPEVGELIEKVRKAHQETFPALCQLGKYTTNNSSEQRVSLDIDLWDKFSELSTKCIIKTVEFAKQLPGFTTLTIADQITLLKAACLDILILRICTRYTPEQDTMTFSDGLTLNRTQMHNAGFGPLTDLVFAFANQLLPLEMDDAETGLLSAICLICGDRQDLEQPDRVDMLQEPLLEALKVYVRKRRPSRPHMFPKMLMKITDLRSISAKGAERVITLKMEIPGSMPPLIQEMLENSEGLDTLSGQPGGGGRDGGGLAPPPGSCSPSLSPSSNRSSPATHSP
UniProt Q14686: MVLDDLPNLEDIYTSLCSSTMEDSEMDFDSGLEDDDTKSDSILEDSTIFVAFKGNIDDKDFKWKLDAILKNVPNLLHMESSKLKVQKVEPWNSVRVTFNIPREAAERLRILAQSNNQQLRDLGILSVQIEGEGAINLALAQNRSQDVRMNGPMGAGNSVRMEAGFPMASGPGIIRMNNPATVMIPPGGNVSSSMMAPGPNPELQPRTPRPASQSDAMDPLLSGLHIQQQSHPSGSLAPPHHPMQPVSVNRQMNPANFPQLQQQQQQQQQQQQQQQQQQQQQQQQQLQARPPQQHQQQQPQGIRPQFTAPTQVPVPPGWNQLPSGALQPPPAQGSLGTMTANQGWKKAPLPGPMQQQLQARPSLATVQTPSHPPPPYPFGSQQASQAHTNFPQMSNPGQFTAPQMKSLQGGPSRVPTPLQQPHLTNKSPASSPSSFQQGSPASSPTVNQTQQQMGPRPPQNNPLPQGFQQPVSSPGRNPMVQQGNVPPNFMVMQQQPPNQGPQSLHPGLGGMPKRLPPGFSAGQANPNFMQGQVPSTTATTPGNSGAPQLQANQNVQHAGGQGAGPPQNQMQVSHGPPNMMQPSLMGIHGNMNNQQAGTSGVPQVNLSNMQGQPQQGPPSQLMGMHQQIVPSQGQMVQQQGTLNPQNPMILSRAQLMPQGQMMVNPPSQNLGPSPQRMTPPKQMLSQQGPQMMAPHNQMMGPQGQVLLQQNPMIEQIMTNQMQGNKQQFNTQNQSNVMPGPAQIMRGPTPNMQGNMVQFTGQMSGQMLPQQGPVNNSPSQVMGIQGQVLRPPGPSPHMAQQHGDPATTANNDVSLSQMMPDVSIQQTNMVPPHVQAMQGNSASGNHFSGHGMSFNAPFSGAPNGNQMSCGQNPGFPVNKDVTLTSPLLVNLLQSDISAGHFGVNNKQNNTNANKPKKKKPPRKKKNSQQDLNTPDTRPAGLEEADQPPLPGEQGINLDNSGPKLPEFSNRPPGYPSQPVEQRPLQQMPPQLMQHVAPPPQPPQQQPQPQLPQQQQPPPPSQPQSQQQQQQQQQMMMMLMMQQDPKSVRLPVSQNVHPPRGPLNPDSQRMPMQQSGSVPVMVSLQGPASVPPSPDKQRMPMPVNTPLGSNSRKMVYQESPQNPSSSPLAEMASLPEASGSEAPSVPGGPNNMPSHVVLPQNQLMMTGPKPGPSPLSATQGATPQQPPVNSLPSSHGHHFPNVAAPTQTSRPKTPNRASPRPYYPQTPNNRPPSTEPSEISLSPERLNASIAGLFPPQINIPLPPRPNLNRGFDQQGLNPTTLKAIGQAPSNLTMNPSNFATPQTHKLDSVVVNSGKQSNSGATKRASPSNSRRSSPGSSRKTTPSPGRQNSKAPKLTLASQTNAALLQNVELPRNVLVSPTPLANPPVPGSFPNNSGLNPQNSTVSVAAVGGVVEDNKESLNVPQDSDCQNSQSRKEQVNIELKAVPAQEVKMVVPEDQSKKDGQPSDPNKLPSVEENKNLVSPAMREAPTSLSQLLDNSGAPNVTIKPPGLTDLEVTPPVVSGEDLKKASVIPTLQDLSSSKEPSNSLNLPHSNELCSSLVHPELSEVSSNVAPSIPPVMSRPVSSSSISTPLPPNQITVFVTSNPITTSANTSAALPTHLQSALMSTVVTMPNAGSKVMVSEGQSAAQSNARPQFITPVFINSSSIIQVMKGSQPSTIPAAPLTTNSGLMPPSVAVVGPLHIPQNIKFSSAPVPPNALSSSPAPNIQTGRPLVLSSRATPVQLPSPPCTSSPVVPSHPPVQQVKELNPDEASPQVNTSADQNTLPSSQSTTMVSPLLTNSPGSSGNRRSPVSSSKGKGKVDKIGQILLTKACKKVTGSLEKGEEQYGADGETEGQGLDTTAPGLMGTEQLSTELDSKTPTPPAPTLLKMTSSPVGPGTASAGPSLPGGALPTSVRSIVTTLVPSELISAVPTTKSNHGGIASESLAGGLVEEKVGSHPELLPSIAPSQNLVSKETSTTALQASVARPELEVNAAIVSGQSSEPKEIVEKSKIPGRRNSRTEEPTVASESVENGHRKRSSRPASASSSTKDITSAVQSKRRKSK
UniProt Q9JLI4: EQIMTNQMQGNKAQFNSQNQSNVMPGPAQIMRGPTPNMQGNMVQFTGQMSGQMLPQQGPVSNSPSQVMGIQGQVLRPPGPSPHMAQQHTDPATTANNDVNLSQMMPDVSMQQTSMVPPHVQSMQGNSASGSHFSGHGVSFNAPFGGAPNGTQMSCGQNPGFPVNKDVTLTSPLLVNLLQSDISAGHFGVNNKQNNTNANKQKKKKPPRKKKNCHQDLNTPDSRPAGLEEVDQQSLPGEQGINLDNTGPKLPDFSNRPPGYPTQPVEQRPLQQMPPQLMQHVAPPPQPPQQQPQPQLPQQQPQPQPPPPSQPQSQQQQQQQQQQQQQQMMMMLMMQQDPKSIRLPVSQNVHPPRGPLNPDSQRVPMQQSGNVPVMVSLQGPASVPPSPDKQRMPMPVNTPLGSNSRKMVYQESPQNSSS

Columns and labels:
[1] = biological target: T1, LexA-cTRα LBD (LexA fusion of the ligand binding domain of cTRα) (chicken) (UniProt P0A7C2+P04625); assay: yeast two-hybrid with T3, β-galactosidase (FIG. 7)
[2] = biological target: LexA-hRXRα LBD (LexA fusion of the ligand binding domain of hRXRα) (human) (UniProt P0A7C2+P19793); assay: yeast two-hybrid with cognate ligand
[3] = biological target: LexA-hGR LBD (LexA fusion of the ligand binding domain of hGR) (human) (UniProt P0A7C2+P04150); assay: yeast two-hybrid with cognate ligand
[4] = biological target: LexA-hPPARα LBD (LexA fusion of the ligand binding domain of hPPARα) (human) (UniProt P0A7C2+Q07869); assay: yeast two-hybrid with cognate ligand
[5] = biological target: LexA-human ERα-LBD (LexA fusion of the ligand binding domain of hERα) (human) (UniProt P0A7C2+P03372); assay: yeast two-hybrid with cognate ligand
[6] = biological target: LexA-hRARα LBD (LexA fusion of the ligand binding domain of hRARα) (human) (UniProt P0A7C2+P10276); assay: yeast two-hybrid with cognate ligand
[7] = biological target: T1, LexA-cTRα LBD (LexA fusion of the ligand binding domain of cTRα) (chicken); assay: yeast two-hybrid with T3, β-galactosidase
[8] = biological target: LexA-NRC (LexA fusion of NRC; limits of the construct not given) (UniProt P0A7C2); assay: yeast two-hybrid, B42-NIF constructs against LexA-NRC fusions (FIG. 5)
[9] = biological target: LexA-NRC-b (LexA DBD fused to NRC amino acids 849-2063), bait of the two-hybrid screen (UniProt P0A7C2); assay: yeast two-hybrid screen, LexA-NRC(849-2063) bait against the B42 GH4C1 cDNA library
[10] = biological target: LexA-NRC (LexA fusion of NRC; limits of the construct not given) (UniProt P0A7C2); assay: yeast two-hybrid
[11] = biological target: GST-NRC (GST fusion of full length NRC expressed from pEBG-NRC in 293T cells) (UniProt Q14686); assay: co-expression in 293T cells, glutathione-agarose pull-down, anti-Flag M2 Western blot (FIG. 4)
[12] = biological target: GST-NRC (GST fusion of full length NRC expressed from pEBG-NRC in 293T cells) (UniProt Q14686); assay: co-expression in 293T cells, glutathione-agarose pull-down, anti-Flag M2 Western blot
[13] = biological target: LexA-NRC (LexA fusion of NRC; limits of the construct not given) (UniProt P0A7C2); assay: yeast two-hybrid, B42-NIF-1 (full-length) against LexA-NRC, β-galactosidase
[14] = biological target: LexA-NRC.1a wt (rat NRC.1a, amino acids 849-995, wild-type LxxLL-1 motif LVNLL) (rat) (UniProt P0A7C2+Q9JLI4); assay: yeast two-hybrid, LexA-NRC constructs with wild-type or mutated LxxLL-1
[15] = biological target: LexA-NRC.1 wt (rat NRC.1, wild-type LxxLL-1 motif) (rat) (UniProt P0A7C2+Q9JLI4); assay: as above

B42-NRC (B42 activation domain fusion of NRC) (from UniProt Q14686 1-2063)
binding [1]: binds | binding [2]: binds | binding [3]: binds | binding [4]: binds | binding [5]: binds | binding [6]: binds | binding [7]: binds

B1: Rat NIF (partial clone isolated from the GH4C1 pJG4-5 cDNA library, B42 fusion) (protein, not shown: large carriers)
chain: MFNHVGSKPYKCDECSYTSVYRKDVIRHAAVHSQDRKKRPDPTPKLSSFPCPVCGRVYPMQKRLTQHMKTHSTEKPHMCDKCGKSFKKRYTFKMHLLTHIQAVANRRFKCEFCEFVCEDKKALLNHQLSHVSDKPFKCSFCPYRTFREDFLLSHVAVKHTGAKPFACEYCHFSTRHKKNLRLHVRCRHANSFEEWGRRHPEEPPSRRRPIFSLQQIEKLKQQHSAAPGPPLSSAGPEAPQEPAPFQSPETPPLLCPDALGGATIIYQQGAEESTAMATQTALDLLLNMSAQRELGATALQVAVVKSEDVEAELTSTARQPSSEDTTPRVVTLHVAESGSSVAAESQLGPSDLQQIALPPGPFSGASYSVITAPPVEGRASASGPPYREEPPGEAAQAVVVNDTLKEAGTHYIMAADGTQLHHIELTADGSISFPSPDTLAPGTKWPLLQCGGPPRDGPEVLSPTKTHHTGGSQGSSTPPPATSHALGLLVPHSPPSAAASSTKKFSCKVCSEAFPSRAEMESHKRAHAGPAAFKCPDCPFSARQWPEVRAHMAQHSSLRPHQCNQCSFASKNKKDLRRHMLTHTNEKPFSCHVCGQRFNRNGHLKFHIQRLHSIDGRKTGTSTARAPAQTIILNSEEETLATLHTAFQSNHGTLGTERLQQALSQEHIIVAQEQTVANQEEATYIQEITADGQTVQHLVTSDNQVQYIISQDGVQHLLPQEYVVVPDGHHIQVQEGQITHIQYEQGTPFLQESQIQYVPVSPSQQLVTQAQLEAAAHSAVTVADAAMAQAQGLFGTEEAVPEHIQQLQHQGIEYDVITLSDD
binding [8]: binds | binding [9]: binds

B2: B42-NIF-2 (human NIF-2 lacking the N-terminal 74 amino acids, B42 fusion) (protein, not shown: large carriers)
chain: SSADPLPNSYLPDSSSVSHGPVAGVTGGPPALVHSSALPDPNMLVSDCTASSSDLGSAIDKIIESTIGPDLIQNCITVTSAEDGGAETTRYLILQGPDDGAPMTSPMSSSPSSPGPPEIPPEATTFQSSEAPSLLCSDTLGGATIIYQQGAEESTAMATQTALDLLLNMSAQRELGGTALQVAVVKSEDVEAGLASPGGQPSPEGATPQVVTLHVAEPGGGAAAESQLGPPDLPQITLAPGPFGGTGYSVITAPPMEEGTSAPGTPYSEEPAGEAAQAVVVSDTLKEAGTHYIMATDGTQLHHIELTADGSISFPSPDALASGAKWPLLQCGGLPRDGPEPPSPAKTHCVGDSQSSASSPPATSKALGLAVPPSPPSAATAASKKFSCKICAEAFPGRAEMESHKRAHAGPGAFKCPDCPFSARQWPEVRAHMAQHSSLRPHQCSQCSFASKNKKDLRRHMLTHTKEKPFACHLCGQRFNRNGHLKFHIQRLHSPDGRKSGTPTARAPTQTPTQTIILNSDDETLATLHTALQSSHGVLGPERLQQALSQEHIIVAQEQTVTNQEEAAYIQEITTADGQTVQHLVTSDNQVQYIISQDGVQHLLPQEYVVVPEGHHIQVQEGQITHIQYEQGAPFLQESQIQYVPVSPGQQLVTQAQLEAAAHSAVTAVADAAMAQAQGLFGTDETVPEHIQQLQHQGIEYDVITLADD
binding [8]: binds | binding [10]: binds

B3: Human NIF-1 amino acids 1043-1342 (FIG. 5, row f), B42 fusion (protein, not shown: large carriers)
chain: GPGAFKCPDCPFSARQWPEVRAHMAQHSSLRPHQCSQCSFASKNKKDLRRHMLTHTKEKPFACHLCGQRFNRNGHLKFHIQRLHSPDGRKSGTPTARAPTQTPTQTIILNSDDETLATLHTALQSSHGVLGPERLQQALSQEHIIVAQEQTVTNQEEAAYIQEITTADGQTVQHLVTSDNQVQYIISQDGVQHLLPQEYVVVPEGHHIQVQEGQITHIQYEQGAPFLQESQIQYVPVSPGQQLVTQAQLEAAAHSAVTAVADAAMAQAQGLFGTDETVPEHIQQLQHQGIEYDVITLADD
binding [8]: binds

B4: Human NIF-1 amino acids 1007-1150 (FIG. 5, row g), B42 fusion (protein, not shown: large carriers)
chain: SPPSAATAASKKFSCKICAEAFPGRAEMESHKRAHAGPGAFKCPDCPFSARQWPEVRAHMAQHSSLRPHQCSQCSFASKNKKDLRRHMLTHTKEKPFACHLCGQRFNRNGHLKFHIQRLHSPDGRKSGTPTARAPTQTPTQTII
binding [8]: binds

B5: Flag-tagged NIF-1 (full-length human NIF-1 with a Flag-tag, expressed from pEX-FlagNIF-1) (protein, not shown: small tags and cut ends)
chain: MEENEVESSSDAAPGPGRPEEPSESGLGVGTSEAVSADSSDAAAAPGQAEADDSGVGQSSDRGSRSQEEVSESSSSADPLPNSYLPDSSSVSHGPVAGVTGGPPALVHSSALPDPNMLVSDCTASSSDLGSAIDKIIESTIGPDLIQNCITVTSAEDGGAETTRYLILQGPDDGAPMTSPMSSSTLAHSLAAIEALADGPTSTSTCLEAQGGPSSPVQLPPASGAEEPDLQSLEAMMEVVVVQQFKCKMCQYRSSTKATLLRHMRERHFRPVAAAAAAAGKKGRLRKWSTSTKSQEEEGPEEEDDDDIVDAGAIDDLEEDSDYNPAEDEPRGRQLRLQRPTPSTPRPRRRPGRPRKLPRLEISDLPDGVEGEPLVSSQSGQSPPEPQDPEAPSSSGPGHLVAMGKVSRTPVEAGVSQSDAENAAPSCPDEHDTLPRRRGRPSRRFLGKKYRKYYYKSPKPLLRPFLCRICGSRFLSHEDLRFHVNSHEAGDPQLFKCLQCSYRSRRWSSLKEHMFNHVGSKPYKCDECSYTSVYRKDVIRHAAVHSRDRKKRPDPTPKLSSFPCPVCGRVYPMQKRLTQHMKTHSTEKPHMCDKCGKSFKKRYTFKMHLLTHIQAVANRRFKCEFCEFVCEDKKALLNHQLSHVSDKPFKCSFCPYRTFREDFLLSHVAVKHTGAKPFACEYCHFSTRHKKNLRLHVRCRHASSFEEWGRRHPEEPPSRRRPFFSLQQIEELKQQHSAAPGPPPSSPGPPEIPPEATTFQSSEAPSLLCSDTLGGATIIYQQGAEESTAMATQTALDLLLNMSAQRELGGTALQVAVVKSEDVEAGLASPGGQPSPEGATPQVVTLHVAEPGGGAAAESQLGPPDLPQITLAPGPFGGTGYSVITAPPMEEGTSAPGTPYSEEPAGEAAQAVVVSDTLKEAGTHYIMATDGTQLHHIELTADGSISFPSPDALASGAKWPLLQCGGLPRDGPEPPSPAKTHCVGDSQSSASSPPATSKALGLAVPPSPPSAATAASKKFSCKICAEAFPGRAEMESHKRAHAGPGAFKCPDCPFSARQWPEVRAHMAQHSSLRPHQCSQCSFASKNKKDLRRHMLTHTKEKPFACHLCGQRFNRNGHLKFHIQRLHSPDGRKSGTPTARAPTQTPTQTIILNSDDETLATLHTALQSSHGVLGPERLQQALSQEHIIVAQEQTVTNQEEAAYIQEITTADGQTVQHLVTSDNQVQYIISQDGVQHLLPQEYVVVPEGHHIQVQEGQITHIQYEQGAPFLQESQIQYVPVSPGQQLVTQAQLEAAAHSAVTAVADAAMAQAQGLFGTDETVPEHIQQLQHQGIEYDVITLADD
binding [11]: binds | binding [12]: binds

B6: B42-NIF-1 (full-length), B42 activation domain fusion expressed from pJG4-5 in yeast (other, not shown: large carriers)
chain: MEENEVESSSDAAPGPGRPEEPSESGLGVGTSEAVSADSSDAAAAPGQAEADDSGVGQSSDRGSRSQEEVSESSSSADPLPNSYLPDSSSVSHGPVAGVTGGPPALVHSSALPDPNMLVSDCTASSSDLGSAIDKIIESTIGPDLIQNCITVTSAEDGGAETTRYLILQGPDDGAPMTSPMSSSTLAHSLAAIEALADGPTSTSTCLEAQGGPSSPVQLPPASGAEEPDLQSLEAMMEVVVVQQFKCKMCQYRSSTKATLLRHMRERHFRPVAAAAAAAGKKGRLRKWSTSTKSQEEEGPEEEDDDDIVDAGAIDDLEEDSDYNPAEDEPRGRQLRLQRPTPSTPRPRRRPGRPRKLPRLEISDLPDGVEGEPLVSSQSGQSPPEPQDPEAPSSSGPGHLVAMGKVSRTPVEAGVSQSDAENAAPSCPDEHDTLPRRRGRPSRRFLGKKYRKYYYKSPKPLLRPFLCRICGSRFLSHEDLRFHVNSHEAGDPQLFKCLQCSYRSRRWSSLKEHMFNHVGSKPYKCDECSYTSVYRKDVIRHAAVHSRDRKKRPDPTPKLSSFPCPVCGRVYPMQKRLTQHMKTHSTEKPHMCDKCGKSFKKRYTFKMHLLTHIQAVANRRFKCEFCEFVCEDKKALLNHQLSHVSDKPFKCSFCPYRTFREDFLLSHVAVKHTGAKPFACEYCHFSTRHKKNLRLHVRCRHASSFEEWGRRHPEEPPSRRRPFFSLQQIEELKQQHSAAPGPPPSSPGPPEIPPEATTFQSSEAPSLLCSDTLGGATIIYQQGAEESTAMATQTALDLLLNMSAQRELGGTALQVAVVKSEDVEAGLASPGGQPSPEGATPQVVTLHVAEPGGGAAAESQLGPPDLPQITLAPGPFGGTGYSVITAPPMEEGTSAPGTPYSEEPAGEAAQAVVVSDTLKEAGTHYIMATDGTQLHHIELTADGSISFPSPDALASGAKWPLLQCGGLPRDGPEPPSPAKTHCVGDSQSSASSPPATSKALGLAVPPSPPSAATAASKKFSCKICAEAFPGRAEMESHKRAHAGPGAFKCPDCPFSARQWPEVRAHMAQHSSLRPHQCSQCSFASKNKKDLRRHMLTHTKEKPFACHLCGQRFNRNGHLKFHIQRLHSPDGRKSGTPTARAPTQTPTQTIILNSDDETLATLHTALQSSHGVLGPERLQQALSQEHIIVAQEQTVTNQEEAAYIQEITTADGQTVQHLVTSDNQVQYIISQDGVQHLLPQEYVVVPEGHHIQVQEGQITHIQYEQGAPFLQESQIQYVPVSPGQQLVTQAQLEAAAHSAVTAVADAAMAQAQGLFGTDETVPEHIQQLQHQGIEYDVITLADD
notes: also called NIF-1 expressed as a B42-fusion
binding [13]: binds | binding [14]: binds | binding [15]: binds
